The nature of series [1]: CO2/N2 gas mixtures bubbled into sensor solution. From the text:
Gas mixtures with different ratios of CO2/N2 were bubbled into solutions containing (I1) at a constant volume and rate (governed by a mass flow controller). […] It could sense a mixture of 1.5% CO2 with a signal to noise of ˜20. Both polar and nonpolar solvents have been used, including water, boding well for a wide range of interdisciplinary applications, without diverging results.

Series [2] in a line: Fluorescent turn-on response in presence and absence of CO2 (DMSO). From the text: Compound (I1) was solubilised in DMSO and involved in carbon dioxide detection experiment, resulting in the compound of formula (I1b).
The compound (I1) was placed in the presence and absence of CO2 (FIG. 2). […] The turn-on response was saturated at a signal-to-noise ratio of 260.

Turning to `CCN(CC)c1ccc2c(NCc3ccccc3N=P(c3ccccc3)(c3ccccc3)c3ccccc3)cc(=O)oc2c1` [Compound (I1)], the “response to CO2/N2 ratio” value in series [1] (different ratios of CO2/N2, constant volume and rate) is on record as “CO2 dose-dependent response”. Further, the signal to noise in series [1] (mixture of 1.5% CO2 in CO2/N2) is around 20. The “fluorescent response in the absence of carbon dioxide” value in series [2] (absence of carbon dioxide) is given as “negligible fluorescent response”. Also, in series [2] (upon bubbling carbon dioxide, emission 455 nm), the “signal-to-noise ratio at saturation of the turn-on response” value came to 260. In series [2] (upon bubbling carbon dioxide, identical to spectra of (I1b)), this compound registered a maximal emission of 455 nm.
